# ± gives the standard deviation of the averaged measurements. This is a selection; strong and weak results do not stand in their true shares.
# Legend:
# Assay in all cases: NP40-soluble protein abundance relative to vehicle (solubility fold change) (ratio); higher = more soluble protein in presence of AMP-PNP
# CENPB = molecular target: T1, CENPB (UniProt P07199)
# T1 sequence (whole entry): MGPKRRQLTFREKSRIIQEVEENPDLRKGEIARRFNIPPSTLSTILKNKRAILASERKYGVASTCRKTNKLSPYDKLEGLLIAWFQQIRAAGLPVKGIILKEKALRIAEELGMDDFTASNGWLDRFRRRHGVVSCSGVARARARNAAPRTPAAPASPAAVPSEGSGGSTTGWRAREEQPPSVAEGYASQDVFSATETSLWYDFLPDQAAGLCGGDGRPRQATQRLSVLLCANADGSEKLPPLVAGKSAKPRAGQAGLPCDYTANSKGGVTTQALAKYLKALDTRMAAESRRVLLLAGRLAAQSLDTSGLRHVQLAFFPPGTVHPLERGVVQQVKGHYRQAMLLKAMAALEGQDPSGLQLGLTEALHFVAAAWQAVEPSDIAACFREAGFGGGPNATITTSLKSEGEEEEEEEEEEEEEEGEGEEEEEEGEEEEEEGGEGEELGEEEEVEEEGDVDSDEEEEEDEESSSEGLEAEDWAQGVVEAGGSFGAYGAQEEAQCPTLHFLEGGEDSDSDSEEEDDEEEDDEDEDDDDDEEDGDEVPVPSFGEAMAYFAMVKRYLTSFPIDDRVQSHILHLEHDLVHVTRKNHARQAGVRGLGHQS
# In short: (§1)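 Each value is a fold change relative to the detergent-processed vehicle, calculated per replicate from vsn-normalised intensities. Jurkat crude lysate received eight concentrations (0.1 to 10 mM) for 10 min at room temperature and 3 min at 37 °C, then was solubilised in 0.8% NP40 with benzonase (60 min, 4 °C). The ultracentrifuged supernatant was TMT-labelled and run by LC-MS/MS in three independent experiments.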
# CSTB = molecular target: T2, CSTB (UniProt P04080)
# T2 sequence (whole entry): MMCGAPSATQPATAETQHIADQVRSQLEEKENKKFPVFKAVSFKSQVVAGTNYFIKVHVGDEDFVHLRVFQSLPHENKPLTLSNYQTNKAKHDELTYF
# In short: as §1
# CYBA = molecular target: T3, CYBA (UniProt P13498)
# T3 sequence (whole entry): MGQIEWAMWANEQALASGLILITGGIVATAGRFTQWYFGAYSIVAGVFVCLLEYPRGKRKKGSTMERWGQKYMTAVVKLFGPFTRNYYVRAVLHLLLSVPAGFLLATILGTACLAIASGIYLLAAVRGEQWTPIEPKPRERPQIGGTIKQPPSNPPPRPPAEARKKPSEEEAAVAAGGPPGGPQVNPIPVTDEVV
# In short: as §1
# GLA = molecular target: T4, GLA (UniProt P06280)
# T4 sequence (whole entry): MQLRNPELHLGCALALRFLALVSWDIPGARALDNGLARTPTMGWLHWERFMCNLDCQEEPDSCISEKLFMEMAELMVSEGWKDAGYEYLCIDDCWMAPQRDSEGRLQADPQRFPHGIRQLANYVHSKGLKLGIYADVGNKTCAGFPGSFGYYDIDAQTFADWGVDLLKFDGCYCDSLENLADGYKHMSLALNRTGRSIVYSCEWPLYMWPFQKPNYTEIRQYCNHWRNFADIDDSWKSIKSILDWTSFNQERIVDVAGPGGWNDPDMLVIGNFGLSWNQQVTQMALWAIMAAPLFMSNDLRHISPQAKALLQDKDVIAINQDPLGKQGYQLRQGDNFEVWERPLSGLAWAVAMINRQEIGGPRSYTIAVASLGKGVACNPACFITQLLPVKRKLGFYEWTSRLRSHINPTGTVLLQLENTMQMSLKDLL
# In short: as §1
# PTTG1 = molecular target: T5, PTTG1 (UniProt O95997)
# T5 sequence (whole entry): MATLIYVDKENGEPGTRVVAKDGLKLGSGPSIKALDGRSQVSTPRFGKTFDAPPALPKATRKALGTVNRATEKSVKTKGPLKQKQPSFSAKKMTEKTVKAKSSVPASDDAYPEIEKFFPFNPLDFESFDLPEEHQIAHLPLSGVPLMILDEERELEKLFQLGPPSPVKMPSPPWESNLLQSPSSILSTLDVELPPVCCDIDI
# In short: as §1
# UniProt O95822-2|O95822 = molecular target: T6, UniProt O95822-2|O95822
# T6 sequence (whole entry): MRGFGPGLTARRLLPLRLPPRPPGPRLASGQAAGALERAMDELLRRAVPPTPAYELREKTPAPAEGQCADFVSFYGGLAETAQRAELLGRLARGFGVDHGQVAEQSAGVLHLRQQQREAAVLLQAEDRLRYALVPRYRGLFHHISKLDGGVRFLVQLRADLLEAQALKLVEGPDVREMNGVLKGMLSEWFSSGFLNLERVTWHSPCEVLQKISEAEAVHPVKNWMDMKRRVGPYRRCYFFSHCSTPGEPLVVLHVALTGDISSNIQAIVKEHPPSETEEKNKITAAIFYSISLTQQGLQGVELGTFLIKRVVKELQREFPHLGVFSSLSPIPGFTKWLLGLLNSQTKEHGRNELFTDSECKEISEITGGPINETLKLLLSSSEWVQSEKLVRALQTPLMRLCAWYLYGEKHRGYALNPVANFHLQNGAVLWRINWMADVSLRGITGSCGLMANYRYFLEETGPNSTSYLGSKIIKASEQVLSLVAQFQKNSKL
# In short: as §1
# [1] = molecular target: T7, UniProt P04083 and related entries
# T7 sequence (whole entry): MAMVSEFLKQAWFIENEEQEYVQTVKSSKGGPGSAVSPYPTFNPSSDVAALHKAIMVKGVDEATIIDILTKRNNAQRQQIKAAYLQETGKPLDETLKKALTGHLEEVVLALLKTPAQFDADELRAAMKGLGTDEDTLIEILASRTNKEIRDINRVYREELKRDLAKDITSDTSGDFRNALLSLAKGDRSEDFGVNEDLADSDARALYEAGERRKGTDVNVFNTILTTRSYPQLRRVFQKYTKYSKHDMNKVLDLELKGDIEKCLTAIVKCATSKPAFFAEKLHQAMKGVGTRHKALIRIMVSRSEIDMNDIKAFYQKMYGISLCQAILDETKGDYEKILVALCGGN
# In short: as §1
# [2] = molecular target: T8, UniProt P04150 and related entries
# T8 sequence (whole entry): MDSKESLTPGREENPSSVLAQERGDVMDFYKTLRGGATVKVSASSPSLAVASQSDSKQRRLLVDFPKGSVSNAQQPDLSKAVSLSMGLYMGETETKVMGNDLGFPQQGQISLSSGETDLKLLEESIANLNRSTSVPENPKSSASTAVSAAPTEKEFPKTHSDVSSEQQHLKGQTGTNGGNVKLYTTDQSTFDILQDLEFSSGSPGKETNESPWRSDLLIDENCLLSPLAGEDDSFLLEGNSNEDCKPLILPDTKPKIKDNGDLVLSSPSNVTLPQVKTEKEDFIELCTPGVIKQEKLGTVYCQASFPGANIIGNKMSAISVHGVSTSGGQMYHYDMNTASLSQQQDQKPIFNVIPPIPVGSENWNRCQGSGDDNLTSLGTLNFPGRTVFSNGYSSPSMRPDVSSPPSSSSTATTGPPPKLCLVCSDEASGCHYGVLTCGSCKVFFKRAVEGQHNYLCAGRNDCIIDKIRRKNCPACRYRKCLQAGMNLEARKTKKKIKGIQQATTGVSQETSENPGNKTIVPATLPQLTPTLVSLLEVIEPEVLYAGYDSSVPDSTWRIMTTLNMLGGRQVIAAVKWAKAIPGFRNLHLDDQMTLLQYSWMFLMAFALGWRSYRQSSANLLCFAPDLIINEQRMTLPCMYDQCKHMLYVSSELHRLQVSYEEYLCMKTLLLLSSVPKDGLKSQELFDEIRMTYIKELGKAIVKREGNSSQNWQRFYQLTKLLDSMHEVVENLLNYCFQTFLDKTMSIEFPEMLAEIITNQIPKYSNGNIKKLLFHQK
# In short: as §1
# [3] = molecular target: T9, UniProt P06737 and related entries
# T9 sequence (whole entry): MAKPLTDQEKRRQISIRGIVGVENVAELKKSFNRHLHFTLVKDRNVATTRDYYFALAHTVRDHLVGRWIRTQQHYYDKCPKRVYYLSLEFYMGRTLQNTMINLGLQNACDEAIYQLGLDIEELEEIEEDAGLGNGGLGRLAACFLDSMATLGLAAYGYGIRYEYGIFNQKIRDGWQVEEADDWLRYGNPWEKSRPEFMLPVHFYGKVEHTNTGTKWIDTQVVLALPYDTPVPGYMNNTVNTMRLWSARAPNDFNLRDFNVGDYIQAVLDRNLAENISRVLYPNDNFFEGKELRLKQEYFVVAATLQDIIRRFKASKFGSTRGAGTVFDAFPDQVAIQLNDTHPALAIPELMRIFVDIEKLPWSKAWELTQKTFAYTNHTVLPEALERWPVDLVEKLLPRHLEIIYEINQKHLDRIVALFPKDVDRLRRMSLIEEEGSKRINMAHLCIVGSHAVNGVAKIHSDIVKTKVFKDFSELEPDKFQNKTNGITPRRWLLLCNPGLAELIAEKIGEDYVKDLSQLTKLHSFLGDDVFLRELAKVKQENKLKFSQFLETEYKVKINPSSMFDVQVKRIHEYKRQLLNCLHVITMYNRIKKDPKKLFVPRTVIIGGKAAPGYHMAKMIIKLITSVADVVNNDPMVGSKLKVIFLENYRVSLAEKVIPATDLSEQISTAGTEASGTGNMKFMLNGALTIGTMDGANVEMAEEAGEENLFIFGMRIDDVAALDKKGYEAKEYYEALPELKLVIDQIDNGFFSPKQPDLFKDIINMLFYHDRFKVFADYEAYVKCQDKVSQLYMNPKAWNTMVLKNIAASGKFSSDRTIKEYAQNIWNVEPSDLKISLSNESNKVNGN
# In short: as §1
smiles,measurement,setting,value
Nc1ncnc2c1ncn2[C@@H]1O[C@H](COP(=O)(O)OP(=O)(O)NP(=O)(O)O)[C@@H](O)[C@H]1O [adenylyl imidodiphosphate],NP40-soluble protein abundance,CENPB; concentration: 1mM,0.9903 ± 0.0031
same,NP40-soluble protein abundance,CENPB; concentration: 2mM,1 ± 0.02
same,NP40-soluble protein abundance,CENPB; concentration: 4mM,0.9993 ± 0.0066
same,NP40-soluble protein abundance,CENPB; concentration: 6mM,1.01 ± 0.036
same,NP40-soluble protein abundance,CENPB; concentration: 8mM,0.989 ± 0.034
same,NP40-soluble protein abundance,CENPB; concentration: 10mM,1.04 ± 0.045
same,NP40-soluble protein abundance,CSTB; concentration: 1mM,0.95 ± 0.029
same,NP40-soluble protein abundance,CSTB; concentration: 2mM,1.03 ± 0.095
same,NP40-soluble protein abundance,CSTB; concentration: 4mM,0.953 ± 0.046
same,NP40-soluble protein abundance,CSTB; concentration: 6mM,1.02 ± 0.057
same,NP40-soluble protein abundance,CSTB; concentration: 8mM,1 ± 0.062
same,NP40-soluble protein abundance,CSTB; concentration: 10mM,1.01 ± 0.12
same,NP40-soluble protein abundance,CYBA; concentration: 1mM,1.06 ± 0.027
same,NP40-soluble protein abundance,CYBA; concentration: 2mM,1.09 ± 0.024
same,NP40-soluble protein abundance,CYBA; concentration: 4mM,1.03 ± 0.018
same,NP40-soluble protein abundance,CYBA; concentration: 6mM,1.07 ± 0.091
same,NP40-soluble protein abundance,CYBA; concentration: 8mM,1.05 ± 0.1
same,NP40-soluble protein abundance,CYBA; concentration: 10mM,1.04 ± 0.058
same,NP40-soluble protein abundance,GLA; concentration: 1mM,1.02 ± 0.018
same,NP40-soluble protein abundance,GLA; concentration: 2mM,1.03 ± 0.055
same,NP40-soluble protein abundance,GLA; concentration: 4mM,1.05 ± 0.011
same,NP40-soluble protein abundance,GLA; concentration: 6mM,1.05 ± 0.068
same,NP40-soluble protein abundance,GLA; concentration: 8mM,1.06 ± 0.038
same,NP40-soluble protein abundance,GLA; concentration: 10mM,1.08 ± 0.05
same,NP40-soluble protein abundance,PTTG1; concentration: 1mM,0.9917 ± 0.006
same,NP40-soluble protein abundance,PTTG1; concentration: 2mM,1.03 ± 0.034
same,NP40-soluble protein abundance,PTTG1; concentration: 4mM,1 ± 0.024
same,NP40-soluble protein abundance,PTTG1; concentration: 6mM,0.9705 ± 0.007
same,NP40-soluble protein abundance,PTTG1; concentration: 8mM,0.97414 ± 0.00045
same,NP40-soluble protein abundance,PTTG1; concentration: 10mM,0.973 ± 0.0024
same,NP40-soluble protein abundance,UniProt O95822-2|O95822; concentration: 1mM,1.02 ± 0.1
same,NP40-soluble protein abundance,UniProt O95822-2|O95822; concentration: 2mM,0.993 ± 0.073
same,NP40-soluble protein abundance,UniProt O95822-2|O95822; concentration: 4mM,0.997 ± 0.045
same,NP40-soluble protein abundance,UniProt O95822-2|O95822; concentration: 6mM,0.969 ± 0.062
same,NP40-soluble protein abundance,UniProt O95822-2|O95822; concentration: 8mM,0.971 ± 0.056
same,NP40-soluble protein abundance,UniProt O95822-2|O95822; concentration: 10mM,0.966 ± 0.049
same,NP40-soluble protein abundance,[1]; concentration: 1mM,1.01 ± 0.039
same,NP40-soluble protein abundance,[1]; concentration: 2mM,1.04 ± 0.059
same,NP40-soluble protein abundance,[1]; concentration: 4mM,1 ± 0.041
same,NP40-soluble protein abundance,[1]; concentration: 6mM,0.967 ± 0.064
same,NP40-soluble protein abundance,[1]; concentration: 8mM,0.957 ± 0.073
same,NP40-soluble protein abundance,[1]; concentration: 10mM,0.927 ± 0.13
same,NP40-soluble protein abundance,[2]; concentration: 1mM,0.992 ± 0.021
same,NP40-soluble protein abundance,[2]; concentration: 2mM,1.01 ± 0.046
same,NP40-soluble protein abundance,[2]; concentration: 4mM,0.963 ± 0.024
same,NP40-soluble protein abundance,[2]; concentration: 6mM,0.959 ± 0.027
same,NP40-soluble protein abundance,[2]; concentration: 8mM,0.946 ± 0.03
same,NP40-soluble protein abundance,[2]; concentration: 10mM,0.919 ± 0.024
same,NP40-soluble protein abundance,[3]; concentration: 1mM,1.02 ± 0.019
same,NP40-soluble protein abundance,[3]; concentration: 2mM,1 ± 0.074
same,NP40-soluble protein abundance,[3]; concentration: 4mM,1.02 ± 0.017
same,NP40-soluble protein abundance,[3]; concentration: 6mM,0.987 ± 0.018
same,NP40-soluble protein abundance,[3]; concentration: 8mM,1 ± 0.019
same,NP40-soluble protein abundance,[3]; concentration: 10mM,0.998 ± 0.034

# From the supplement of paper PMC6411743
